The whole screen tested about 400,000 compounds, of which about 13,000 (3.2%) were called active. This list was built around the results that the source calls inconclusive (neither active nor inactive); the mix of calls is not that of the screen. Calls come from the whole dose curve; as a rule, active = well fitted cell-killing curve with a large enough effect; inconclusive = small, poorly fitted or top-dose-only effect, or effect the other way; inactive = flat fitted curve, though single readings scatter. Potencies beside an inconclusive call are fits to weak or partial responses and may not hold up.
Assay: qHTS assay for MDR1-selective chemotherapeutics: Primary screen using the drug-selected MDR subline cells KB-V1; note: nearly all actives have a fitted effect of over 60% in size
Conditions: KB-V1 MDR cells viability, CellTiter-Glo, 72 h; activity change, negative = cytotoxicity: at 46.1 µM (top of the series)
How it was run: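 KB-V1 cells (P-gp-expressing MDR subline of KB-3-1) in phenol-red-free DMEM with 10% FBS were exposed to library compounds over a concentration series for 72 h at 37 degrees C. Viability read by CellTiter-Glo luminescence; concentration-effect curves fitted after normalization.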
% is set by controls: 0 for no effect and ±100 for the full control effect; potency is the fitted concentration of half-maximal effect.

Row | Compound | Potency | activity change, negative = cytotoxicity
1 | O=C(CSc1nc2ccccc2[nH]1)NCCCn1ccnc1 | inconclusive: 16.4 µM [cytotoxic, single point] | 
2 | COc1ccccc1NC(=O)c1ccccc1C(=O)O |  | inactive: -2.98%
3 | Cc1nn(CCCC(=O)O)c(C)c1[N+](=O)[O-] | inconclusive: 8.2 µM [rising, single point] | 
4 | O=c1[nH][nH]c2c1[C@H](c1ccc(F)cc1)O[C@H](CCc1ccccc1)C2 |  | inactive: -0.957%
5 | Cc1[nH]c2ccccc2c1C(=O)C(=O)N1CC=C(c2ccccc2)CC1 | inconclusive: 29.1 µM [cytotoxic, single point] | 
6 | O=C(Nc1cc(Cl)ccc1Cl)N1CCN(C(=O)Nc2cc(Cl)ccc2Cl)CC1 | active: 14.6 µM | 
7 | CCCN1C(=O)C2(c3ccccc31)c1c(oc3ccccc3c1=O)C(=O)N2CCCOC(C)C (centres undefined) |  | inconclusive: 32.7%
8 | Cc1cccc(-c2nc(SCC(=O)N(C)c3ccccc3)c3c(=O)n(C)c(=O)n(C)c3n2)c1 |  | inactive: 0%
9 | O=C(c1ccco1)N1CCN(C(=O)c2cnn(-c3cccc(F)c3)c2C2CCNCC2)CC1 | inconclusive: 2.91 µM [rising, partial curve] | 
10 | O=c1[nH]c2c(cnn2-c2ccc(Cl)cc2)c(=O)n1-c1cccc(Cl)c1 | inconclusive: 4.11 µM [rising, full curve, poor fit] | 
11 | O=C(CN1C(=O)c2ccccc2C1=O)N1CCN(C2c3ccccc3-c3ccccc32)CC1 | inconclusive: 13 µM [cytotoxic, partial curve] | 
12 | CCS(=O)(=O)Nc1cc2c3c(c1)CCN3C(=O)CC2 | inconclusive: 20.6 µM [rising, single point] | 
13 | CC1CCN(C(=O)C(C)Sc2nc(-c3ccccc3)cc(C(F)(F)F)n2)CC1 (centres undefined) | inconclusive: 14.6 µM [cytotoxic, partial curve, poor fit] | 
14 | Cc1oc2ccc(O)cc2c1C(=O)c1ccc([N+](=O)[O-])cc1 | inconclusive: 18.4 µM [cytotoxic, single point] | 
15 | O=C(NCCc1ccccc1)c1ccc(Br)o1 | inconclusive: 29.1 µM [rising, single point] | 
16 | COc1cc2c(cc1OC)CN(c1nc(CN3CCOCC3)nc3sc4c(c13)CCC(C)C4)CC2 (centres undefined) |  | inactive: -16.6%
17 | CCC1Oc2ccc(C)cc2N(CC(=O)N(Cc2ccc(C)o2)C2CCCC2)C1=O (centres undefined) | inconclusive: 29.1 µM [cytotoxic, single point] | 
18 | COc1cc(Cl)ccc1OCc1cc(C(=O)N2CCCC(OC)C2)no1 (centres undefined) | inconclusive: 29.1 µM [cytotoxic, single point] | 
19 | CC(Oc1ccccc1)C(=O)NNC(=O)c1ccccn1 (centres undefined) | active: 4.61 µM | 
20 | Cc1nn(-c2ccc(F)cc2)c(Cl)c1C(=O)N(C)CC(=O)Nc1cccc(F)c1 | inconclusive: 13 µM [cytotoxic, partial curve] | 
21 | O=C(NCc1ccco1)C1CCCN1S(=O)(=O)c1ccc2ccccc2c1 (centres undefined) | inconclusive: 5.8 µM [cytotoxic, full curve] | 
22 | N/C(COc1ncn(-c2ccccc2)n1)=N\S(=O)(=O)c1ccc(Cl)cc1Cl |  | inactive: -15.5%

Row | Compound | Potency | activity change, negative = cytotoxicity
23 | Cc1ccc(Sc2ccc(NC(=O)c3ccc(S(C)(=O)=O)cc3Cl)cc2)cc1 | inconclusive: 3.26 µM [cytotoxic, full curve, poor fit] | 
24 | O=C(Cc1ccc(Br)c2ccccc12)N/N=C/c1ccccn1 | inconclusive: 14.6 µM [cytotoxic, partial curve] | 
25 | CCOC(=O)C1CCN(C(=O)c2ccc3c(c2)N=C(CC)c2cc(C)ccc2S3)CC1 |  | inactive: -9.7%
26 | CC1(C)Cc2cccc(OCC(=O)N3CCN(c4ccc([N+](=O)[O-])cc4)CC3)c2O1 | active: 2.59 µM | 
27 | CCOC(=O)N1CCN(S(=O)(=O)c2ccc3c(c2)CCN3C(=O)CC)CC1 | inconclusive: 20.6 µM [cytotoxic, single point] | 
28 | COc1ccc(-c2cc(C(F)(F)F)n3nc(C(=O)N4CCCCC4)cc3n2)cc1 | inconclusive: 16.4 µM [cytotoxic, partial curve] | 
29 | COC(=O)c1c(C)[nH]c(C(=O)NCc2ccco2)c1C |  | inactive: -26.1%
30 | CSc1ccc(C2C(C(=O)c3ccco3)=C(O)C(=O)N2c2nnc(SC)s2)cc1 (centres undefined) | inconclusive: 29.1 µM [rising, single point] | 
31 | Cc1cc(OCC(=O)N(Cc2ccco2)c2c(N)n(Cc3ccccc3)c(=O)[nH]c2=O)ccc1Cl |  | inactive: -1.89%
32 | COc1ccc(-n2c(SCc3cn4c(C)cccc4n3)nc3ccccc3c2=O)cc1OC | inconclusive: 7.31 µM [cytotoxic, partial curve] | 
33 | CNC(=O)COC(=O)/C=C/c1cccc(F)c1 |  | inconclusive: 44.9%
34 | Cc1cc(NC(=O)CSc2nnc(CNc3ccc(F)cc3)n2C2CCCCC2)no1 | inconclusive: 22.4 µM [cytotoxic, single point] | 
35 | CC1CCc2onc(C(=O)NCc3ccco3)c2C1 (centres undefined) | inconclusive: 20.6 µM [cytotoxic, single point] | 
36 | Cc1ccc(CN2CCN(Cc3cccn3-c3ccccn3)CC2CCO)cc1 (centres undefined) |  | inactive: 13.4%
37 | COc1ccc2[nH]c(=O)c(CN(CCO)S(=O)(=O)c3c(C)ccc4nsnc34)cc2c1 | inconclusive: 0.0103 µM [rising, full curve] | 
38 | CCOc1ccc(/C=C/c2nc(C#N)c(NCCCOC)o2)cc1 | active: 2.06 µM | 
39 | O=C(Nc1ccc(-c2csc(Nc3ccccc3)n2)cc1)c1cc([N+](=O)[O-])cc(C(F)(F)F)c1 | inconclusive: 20.6 µM [cytotoxic, single point] | 
40 | Cc1ccc(S(=O)(=O)Nc2ccc3nc(C)oc3c2)cc1 | active: 2.91 µM | 
41 | CCOc1ccc(/C=N/NC(=O)c2ccc(F)cc2)cc1CN1CC2CC(C1)c1cccc(=O)n1C2 (centres undefined) |  | inactive: -17.9%
42 | CCCS(=O)(=O)N1CCCC(C(=O)Oc2ccccc2Cl)C1 (centres undefined) | inconclusive: 29.1 µM [rising, single point] | 
43 | O=C1N(c2ccccc2C(F)(F)F)O[C@@]1(c1ccccc1)C1CCCC1 |  | inactive: 0%
44 | O=C(Cc1cccc2ccccc12)N/N=C/c1ccc(Sc2nc3ccccc3s2)o1 | inconclusive: 23.1 µM [cytotoxic, single point] | 

Of the compounds above, 2 have bromine:
Row | Compound | Potency | activity change, negative = cytotoxicity
15 | O=C(NCCc1ccccc1)c1ccc(Br)o1 | inconclusive: 29.1 µM [rising, single point] | 
24 | O=C(Cc1ccc(Br)c2ccccc12)N/N=C/c1ccccn1 | inconclusive: 14.6 µM [cytotoxic, partial curve] | 

Source: PubChem BioAssay AID1347076 (National Center for Advancing Translational Sciences (NCATS), 2019)
